Experimental data taken from patent US20070123537A1, “Quinazoline derivatives for the treatment of herpesviral infections” (GPC Biotech AG, priority 2003, published 2007).
Structures were worked out from names or drawings and are uncertain.

Test system: HEK 293 cells
Test: Toxicity assay in HEK 293 cells
Assay type: cell-based
Protocol: Toxicity Assay: Toxicity of the quinazoline derivatives was measured by incubating HEK 293 cells with 10 μM of each derivative. The corresponding amount of DMSO served as control.

`Brc1cccc(Nc2ncnc3ccccc23)c1` was tested, and the “Viability [%] at 10 μM” value was 98%.
